Test results from patent US9475783B2, “Antimicrobial agents” (Rutgers, the State University of New Jersey, priority 2012, dated 2016).
For some assays here: For at least one compound, name, drawing or mass did not settle the structure. Some entries share one result that the patent states for a list of compounds.

Assays:
[1] = target: T1, Staphylococcus aureus FtsZ (Staphylococcus aureus, UniProt P0A031); test: Test B FtsZ polymerization turbidity assay; type: biochemical; settings: compound at 20 μg/mL
T1 sequence (P0A031 1-390): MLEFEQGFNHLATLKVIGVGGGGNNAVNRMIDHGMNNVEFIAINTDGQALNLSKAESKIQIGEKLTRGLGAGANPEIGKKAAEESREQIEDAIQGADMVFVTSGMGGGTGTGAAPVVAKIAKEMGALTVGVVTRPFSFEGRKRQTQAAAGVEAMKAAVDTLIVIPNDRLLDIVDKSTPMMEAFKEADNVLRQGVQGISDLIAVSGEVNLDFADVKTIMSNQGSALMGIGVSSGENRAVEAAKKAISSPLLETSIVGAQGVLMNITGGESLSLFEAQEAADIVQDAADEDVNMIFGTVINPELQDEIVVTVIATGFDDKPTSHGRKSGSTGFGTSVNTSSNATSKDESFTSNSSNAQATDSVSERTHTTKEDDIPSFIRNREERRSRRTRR

[2] = Test D formulation of test compounds (solubility in vehicles); type: physicochemical; settings: vehicle 20% DMA, 40% polyethylene glycol, 40% saline
Procedure: Test D. Formulation of Test Compounds.
The literature vehicle reported for formulation of 5-chloro-2-(2,4-difluoro-3-aminocarbonylphenoxy)methylpyridylthiazole for i.v. administration consists of 20% DMA, 40% polyethylene glycol and 40% saline. […] Mice that were treated 15 minutes later with a second injection consisting of 150 μl of this vehicle died. In addition, concentrations of 5-chloro-2-(2,4-difluoro-3-aminocarbonylphenoxy)methylpyridylthiazole at or above 2.2 mg/ml in this vehicle were not completely dissolved and existed as a suspension (in a 28 g mouse this would be 15.7 mg/kg). A number of other formulations with 5-chloro-2-(2,4-difluoro-3-aminocarbonylphenoxy)methyl benzothiazole were tried, such as 20% DMA, 40% proplyeneglycol in 8% Cremophor-EL. […] Because of the limited solubility and the absence of a suitable vehicle, the literature study where it was reported that a 30 mg/kg dose of 5-chloro-2-(2,4-difluoro-3-aminocarbonylphenoxy)methylpyridylthiazole was delivered to mice in a single injection could not be repeated. […] In some instances the addition of 10-30% propylene glycocol did allow for greater retention of solubility of the test compounds. Example 4 was also found to formulate well at a 2.0 mg/ml concentration in 10 mM malic acid with 20% propylene glycol and with 10 mM p-toluenesulphonate alone. […]

SMILES	stimulation of S. aureus FtsZ polymerization [1] [fold]	concentration at or above which compound is not completely dissolved (suspension) [2] [µg/mL]
O=C(NCN1CCOCC1)c1c(F)ccc(OCc2nc3cc(Cl)cnc3s2)c1F [Example 7]	≥ 2.5	
NC(=O)c1c(F)ccc(OCc2nc3cc(Cl)cnc3s2)c1F [5-chloro-2-(2,4-difluoro-3-aminocarbonylphenoxy)methylpyridylthiazole, reference compound]		< 2200
CN(C)CNC(=O)c1c(F)ccc(OCc2nc3cc(Cl)cnc3s2)c1F [Example 6]	≥ 2.5	
CN(C)CNC(=O)c1c(F)ccc(OCc2nc3cc(Cl)ccc3s2)c1F [Example 4]	≥ 2.5	
CN1CCN(CNC(=O)c2c(F)ccc(OCc3nc4cc(Cl)cnc4s3)c2F)CC1 [Example 8]	≥ 2.5	
